PubChem BioAssay AID1259308 – NCATS, 2017

Purpose: 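Knock-downs that increase output of a recombinant reporter protein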 (primary screen)
System: human HEK293 embryonic kidney cells stably expressing firefly luciferase (HEK-CMV-Luc2-Hygro)
Reagent: single siRNA against human genes, 0.8 pmol siRNA per well
Duration: 72 h
Read-out: 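Reporter luminescence and viable-cell signal on separate replicate plates, given as percent of non-targeting control and median/MAD z-scores, plus per-cell luciferase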
Scale: total luciferase, z-score and total luciferase, % of control: higher = more reporter protein produced; luciferase per cell, z-score: higher = more reporter output per viable cell; viable cells, % of control: higher = more viable cells
Rule for the call: 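An siRNA counts as active if its total luciferase robust z-score exceeds 3; genes with two or more such siRNAs out of three were retested with fresh siRNAs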
Meaning of the calls: active = raised luciferase; inactive = no rise
The whole screen tested about 59,000 reagents; below is an unselected part. About 1,510 of all reagents (2.6%) count as active. 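Calls use total luciferase alone and ignore viability, so some active siRNAs may act by altering cell number.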 Entries without a mark were called inactive. The numbers tell different reagents against one gene apart.

gene | reagent no. | total luciferase, z-score | total luciferase, % of control | luciferase per cell, z-score | viable cells, % of control
OR4M2 | 1 | 0.394 | 89.7 | 0.372 | 90.9
OR4M2 | 2 | 1.19 | 105 | 0.878 | 93.5
OR4M2 | 3 | -1.73 | 47.5 | -1.98 | 89.3
EXT2 | 1 | -0.677 | 68.4 | -0.977 | 98.9
EXT2 | 2 | 0.312 | 88.1 | -0.535 | 113
EXT2 | 3 | -0.252 | 76.9 | -0.229 | 91.2
KIAA0753 | 1 | -0.6 | 69.9 | -0.999 | 102
KIAA0753 | 2 | 0.394 | 89.7 | 0.359 | 91.2
KIAA0753 | 3 | -0.726 | 67.4 | -0.257 | 80.6
ZBTB21 | 1 | 0.0647 | 83.2 | 0.61 | 79.2
ZBTB21 | 2 | -0.375 | 74.4 | -0.243 | 88.7
ZBTB21 | 3 | 2.03 | 122 | 1.43 | 93.7
IRF8 | 1 | 0.0292 | 82.5 | -0.193 | 97
IRF8 | 2 | 0.75 | 96.8 | 0.307 | 99.8
IRF8 | 3 | 0.807 | 97.9 | 1.85 | 67.2
SLC18B1 | 1 | -0.287 | 76.2 | -0.43 | 95.3
SLC18B1 | 2 | 1.7 | 116 | 1.64 | 83.9
SLC18B1 | 3 | 1.43 | 110 | 1.13 | 91.6
SDF2 | 1 | 2.74 | 136 | 2.76 | 73.7
SDF2 | 2 | 0.77 | 97.2 | 1.92 | 65.5
SDF2 | 3 | -0.462 | 72.7 | -0.327 | 88.6
CEMP1 | 1 | 3.83 (active) | 158 | 4.04 | 61
CEMP1 | 2 | 0.574 | 93.3 | 1.71 | 66.4
CEMP1 | 3 | 1.11 | 104 | 0.629 | 98.4
XPC | 1 | 0.437 | 90.6 | 0.831 | 81.3
XPC | 2 | 2.8 | 138 | 2.68 | 76
XPC | 3 | -0.457 | 72.8 | -0.484 | 92.4
SIGLEC9 | 1 | -1.03 | 61.3 | -0.556 | 79.3
SIGLEC9 | 2 | -0.531 | 71.3 | -0.202 | 84.1
SIGLEC9 | 3 | -0.0968 | 80 | 0.874 | 71
GPRASP3 | 1 | -1.29 | 56.3 | 0.751 | 51.6
GPRASP3 | 2 | 0.918 | 100 | 0.566 | 96.4
GPRASP3 | 3 | 0.341 | 88.7 | -0.489 | 113
ADRA1D | 1 | 0.0864 | 83.6 | -0.238 | 99.5
ADRA1D | 2 | -0.0792 | 80.3 | -0.569 | 104
ADRA1D | 3 | 0.474 | 91.3 | 0.523 | 88.9
OLAH | 1 | 0.296 | 87.8 | 0.00575 | 97.9
OLAH | 2 | 2.15 | 125 | 1.68 | 89.4
OLAH | 3 | -0.594 | 70.1 | -0.951 | 101
ATF1 | 1 | 0.0764 | 83.4 | -0.428 | 104
ATF1 | 2 | -0.381 | 74.3 | -0.936 | 106
ATF1 | 3 | 1.31 | 108 | 0.161 | 116
IL12RB1 | 1 | -0.0774 | 80.3 | -0.402 | 99.8
IL12RB1 | 2 | -0.0326 | 81.2 | -0.231 | 96.5
IL12RB1 | 3 | -0.457 | 72.8 | -0.986 | 105
BANK1 | 1 | 5.01 (active) | 182 | 3.31 | 84.8
BANK1 | 2 | -0.547 | 71 | -0.201 | 83.7
BANK1 | 3 | 1.7 | 116 | 1.97 | 77
DHX33 | 1 | -0.967 | 62.6 | -0.12 | 72.2
DHX33 | 2 | 0.228 | 86.4 | 4.02 | 33.5
DHX33 | 3 | 0.474 | 91.3 | 2.76 | 49.4
PDCD10 | 1 | 1.03 | 102 | 0.583 | 98.1
PDCD10 | 2 | -0.91 | 63.8 | -0.876 | 89.8
PDCD10 | 3 | 0.202 | 85.9 | 0.202 | 91
RB1CC1 | 1 | -0.12 | 79.5 | 0.686 | 74.2
RB1CC1 | 2 | -0.686 | 68.2 | -0.665 | 90.8
RB1CC1 | 3 | 0.22 | 86.3 | 0.156 | 92.5

Copied from the listing for reference:
gene | reagent no. | total luciferase, z-score | total luciferase, % of control | luciferase per cell, z-score | viable cells, % of control
OLAH | 2 | 2.15 | 125 | 1.68 | 89.4
OLAH | 3 | -0.594 | 70.1 | -0.951 | 101
ATF1 | 1 | 0.0764 | 83.4 | -0.428 | 104
ATF1 | 2 | -0.381 | 74.3 | -0.936 | 106
ATF1 | 3 | 1.31 | 108 | 0.161 | 116
IL12RB1 | 1 | -0.0774 | 80.3 | -0.402 | 99.8
IL12RB1 | 2 | -0.0326 | 81.2 | -0.231 | 96.5
IL12RB1 | 3 | -0.457 | 72.8 | -0.986 | 105
BANK1 | 1 | 5.01 (active) | 182 | 3.31 | 84.8
